This test concerns the target RFP-FKBP-TMEM55B CD (human) (UniProt Q86T03). The test is described as follows: affinity purification with mass spectrometry; RFP pull-down on RFP-nanobody beads (Chromotek) from lysates of cells co-expressing RFP-FKBP-TMEM55B CD and LAMP1-CFP-FRB, treated or not with rapamycin; 25 mM Tris-HCl pH 7.5, 300 mM NaCl, 5 mM EDTA, 1% Triton X-100, 2 h at 4 °C; bands cut from SDS-PAGE, trypsin, LTQ Orbitrap Velos.

By UniProt entry, the sequences of proteins in these tests, tags left out. Residues count along the entry.
UniProt Q86T03, residues 1-207: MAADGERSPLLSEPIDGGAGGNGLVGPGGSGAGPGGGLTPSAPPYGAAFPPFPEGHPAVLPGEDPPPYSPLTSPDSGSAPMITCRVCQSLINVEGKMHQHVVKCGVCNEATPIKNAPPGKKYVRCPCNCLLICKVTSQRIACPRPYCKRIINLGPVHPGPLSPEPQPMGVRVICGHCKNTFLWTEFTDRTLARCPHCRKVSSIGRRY

Results are given in words; binding and its absence hold for the method and conditions named. In cells and extracts the contact can be indirect. These calls come from enrichment with a bait or labelling near it, and not all partners need be listed.

B1: JIP4 (endogenous) (protein, UniProt O60271 1-1321)
chain: MELEDGVVYQEEPGGSGAVMSERVSGLAGSIYREFERLIGRYDEEVVKELMPLVVAVLENLDSVFAQDQEHQVELELLRDDNEQLITQYEREKALRKHAEEKFIEFEDSQEQEKKDLQTRVESLESQTRQLELKAKNYADQISRLEEREAELKKEYNALHQRHTEMIHNYMEHLERTKLHQLSGSDQLESTAHSRIRKERPISLGIFPLPAGDGLLTPDAQKGGETPGSEQWKFQELSQPRSHTSLKVSNSPEPQKAVEQEDELSDVSQGGSKATTPASTANSDVATIPTDTPLKEENEGFVKVTDAPNKSEISKHIEVQVAQETRNVSTGSAENEEKSEVQAIIESTPELDMDKDLSGYKGSSTPTKGIENKAFDRNTESLFEELSSAGSGLIGDVDEGADLLGMGREVENLILENTQLLETKNALNIVKNDLIAKVDELTCEKDVLQGELEAVKQAKLKLEEKNRELEEELRKARAEAEDARQKAKDDDDSDIPTAQRKRFTRVEMARVLMERNQYKERLMELQEAVRWTEMIRASRENPAMQEKKRSSIWQFFSRLFSSSSNTTKKPEPPVNLKYNAPTSHVTPSVKKRSSTLSQLPGDKSKAFDFLSEETEASLASRREQKREQYRQVKAHVQKEDGRVQAFGWSLPQKYKQVTNGQGENKMKNLPVPVYLRPLDEKDTSMKLWCAVGVNLSGGKTRDGGSVVGASVFYKDVAGLDTEGSKQRSASQSSLDKLDQELKEQQKELKNQEELSSLVWICTSTHSATKVLIIDAVQPGNILDSFTVCNSHVLCIASVPGARETDYPAGEDLSESGQVDKASLCGSMTSNSSAETDSLLGGITVVGCSAEGVTGAATSPSTNGASPVMDKPPEMEAENSEVDENVPTAEEATEATEGNAGSAEDTVDISQTGVYTEHVFTDPLGVQIPEDLSPVYQSSNDSDAYKDQISVLPNEQDLVREEAQKMSSLLPTMWLGAQNGCLYVHSSVAQWRKCLHSIKLKDSILSIVHVKGIVLVALADGTLAIFHRGVDGQWDLSNYHLLDLGRPHHSIRCMTVVHDKVWCGYRNKIYVVQPKAMKIEKSFDAHPRKESQVRQLAWVGDGVWVSIRLDSTLRLYHAHTYQHLQDVDIEPYVSKMLGTGKLGFSFVRITALMVSCNRLWVGTGNGVIISIPLTETNKTSGVPGNRPGSVIRVYGDENSDKVTPGTFIPYCSMAHAQLCFHGHRDAVKFFVAVPGQVISPQSSSSGTDLTGDKAGPSAQEPGSQTPLKSMLVISGGEGYIDFRMGDEGGESELLGEDLPLEPSVTKAERSHLIVWQVMYGNE
B1: the binding result is “binds”.

The values are drawn from publication PMC5691037.
